Measurements as given in PubChem BioAssay AID624297 (National Center for Advancing Translational Sciences (NCATS), 2012).
Out of some 340,000 compounds screened, about 6,200 (1.8%) were called active. Inconclusive results, whose numbers are uncertain, are shown with a selection of clear calls. Calls follow the shape of the dose curve; as a rule, active = well fitted activation curve with a large enough effect; inconclusive = small, poorly fitted or top-dose-only effect; inactive = no such curve, though single readings can be large or run the other way. Potencies beside an inconclusive call are fits to weak or partial responses and may not hold up.

Assay: A quantitative high throughput screen for small molecules that induce DNA re-replication in SW480 colon adenocarcinoma cells. Also: nearly all actives have a fitted effect of over 55% in size. As to re-replication activation: % of control where 0% means no effect.
Conditions: Hoechst DNA content imaging, 48 h; re-replication activation: at 46.1 µM (top of the series) unless noted
In short: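 Quantitative HTS format with DMSO vehicle controls; 48 hr drug incubation at 37 C, then 40 min Hoechst staining and scanning imager measurement at 405 nm excitation.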
Potency is read from the fitted curve at half-maximal effect.

SMILES	Potency	re-replication activation
CNC(=O)NC(=O)C(OC(=O)Cc1cccc(C(F)(F)F)c1)c1ccccc1 (stereo not drawn)	inconclusive: 4.47 µM [activator, full curve, poor fit]	–
CC(C)N1CCc2c(sc(NC(=O)c3cc(-c4cccs4)nc4ccccc34)c2C(N)=O)C1	inconclusive: 23.1 µM [activator, single point]	–
CCOC(=O)CSC1=C(C#N)C(c2ccccc2OC)CC(=O)N1 (stereo not drawn)	active: 18.4 µM	–
COC(=O)C(NC(C)=O)(Nc1sc2c(c1C(N)=O)CCCC2)C(F)(F)F (stereo not drawn)	inconclusive: 0.92 µM [activator, full curve, poor fit]	–
COc1ccc(C(=O)N[C@H](C(=O)NC2CCCCC2)C(C)C)cc1	–	inactive: 1.06%
COC(=O)c1cccnc1-n1c(=O)c2cccnc2n(Cc2ccc([N+](=O)[O-])cc2)c1=O	inconclusive: 5.8 µM [activator, single point]	–
Nc1ccccc1C(=O)Nc1cccc2ccccc12	–	inconclusive: 28.5% [activator]
NS(=O)(=O)c1ccc(NC(=O)c2ccc3c(c2)CCN3S(=O)(=O)c2ccccc2)cc1	inconclusive: 3.66 µM [activator, partial curve, poor fit]	–
COc1cc(C2c3cc4c(cc3C(OC3OC5COC(c6cccs6)OC5C(O)C3O)C3COC(=O)C23)OCO4)cc(OC)c1O (stereo not drawn)	inconclusive: 0.116 µM [activator, full curve, poor fit]	–
O=C(c1ccc2c(Cl)c3c(nc2c1)CCCC3)N1CCN(c2ccc(F)cc2)CC1	inconclusive: 29.1 µM [activator, single point]	–
CCOC(=O)c1sc(C)c2c1NC(C)(c1cccc3ccccc13)NC2=O (stereo not drawn)	inconclusive: 29.1 µM [activator, partial curve, poor fit]	–
Cc1ccc(-c2nc3ccccc3o2)cc1NC(=S)NC(=O)c1cc2ccccc2o1	inconclusive: 6.51 µM [activator, single point]	–
CC(=O)NNc1nc2ccccc2s1	–	inactive: -1.66%
CC(c1cccs1)N(Cc1ccco1)C(=O)Nc1ccc(Cl)c(Cl)c1 (stereo not drawn)	inconclusive: 23.1 µM [activator, single point]	–
C1CCN2C[C@@H]3C[C@@H](CN4CCCC[C@H]34)[C@H]2C1	–	inactive: -0.12% [at 20.6 µM]
O=[N+]([O-])c1cc2cccnc2c2ncccc12	active: 14.6 µM	–
Cc1cccn2c(=O)c3cc(S(=O)(=O)c4ccccc4)c(=N)n(Cc4cccnc4)c3nc12	inconclusive: 29.1 µM [activator, single point]	–
Cc1ccc(N(C(=O)c2snc(C(N)=O)c2N)C(C(=O)NCCC(C)C)c2ccco2)cc1 (stereo not drawn)	inconclusive: 29.1 µM [activator, single point]	–
CN1CCC(N(C)S(=O)(=O)c2ccc(C(C)(C)C)cc2)CC1	inconclusive: 29.1 µM [activator, single point]	–
CC(C)C[C@@H](CN1CCC[C@@H]1CN1C(=O)C(=O)NC[C@@H]1Cc1ccccc1)N1C[C@H](Cc2ccc(O)cc2)N(CC2CCCCCC2)C(=O)C1=O	inconclusive: 16.4 µM [activator, single point]	–
COCCN1CCN(c2c3c(nc4cc(-c5cccc(F)c5)nn24)CCC3)CC1	–	inactive: -0.325%
COc1cccc(C(=O)Nc2ccc3c(cc2=O)[C@@H](NC(C)=O)CCc2cc(OC)c(OC)c(OC)c2-3)c1	active: 7.31 µM	–
Cc1ccc(C)n1-c1nnc(N2CCC(C(=O)N3CCN(C)CC3)CC2)s1	inconclusive: 25.9 µM [activator, single point]	–

Among those listed so far, 3 contain a furan ring, fused or not.
SMILES	Potency	re-replication activation
Cc1ccc(-c2nc3ccccc3o2)cc1NC(=S)NC(=O)c1cc2ccccc2o1	inconclusive: 6.51 µM [activator, single point]	–
CC(c1cccs1)N(Cc1ccco1)C(=O)Nc1ccc(Cl)c(Cl)c1 (stereo not drawn)	inconclusive: 23.1 µM [activator, single point]	–
Cc1ccc(N(C(=O)c2snc(C(N)=O)c2N)C(C(=O)NCCC(C)C)c2ccco2)cc1 (stereo not drawn)	inconclusive: 29.1 µM [activator, single point]	–

More records.

SMILES	Potency	re-replication activation
C#CCn1c(S(=O)(=O)Cc2ccc(F)cc2)nc(-c2ccccc2)c1-c1ccccc1	inconclusive: 1.64 µM [activator, full curve, poor fit]	–
COc1cccc(NC(=O)CN(C)C(=O)CCC(=O)c2cc(C)sc2C)c1	–	inactive: 1.9%
CCOC(=O)C(C(=O)Nc1nc2ccccc2s1)C1CCCCC1 (stereo not drawn)	–	inactive: 4.49%
Cn1c(=O)n(C/C=C/c2ccccc2)c(=O)c2c1nc1n2CCCN1c1ccc(F)cc1	–	inactive: -9.16%
CSc1nnc(NC(=O)c2nc(S(=O)(=O)Cc3ccccc3)ncc2Cl)s1	inconclusive: 3.66 µM [activator, full curve, poor fit]	–
CC(C)C(=O)N1CCN(S(=O)(=O)c2ccc3ccccc3c2)CC1	active: 2.91 µM	–
CSC1=C(C#N)C(c2ccc(Cl)cc2)C2=C(CC(C)(C)CC2=O)N1 (stereo not drawn)	–	inactive: 20.6%
CCCNC(=O)c1ccc(N2CCC3(CC2)CC(c2cccc(Br)c2)=NO3)c(N)c1	inconclusive: 25.9 µM [activator, partial curve, poor fit]	–
O=C(Nc1ccccc1Cl)c1cccs1	–	inactive: 0.12%
COc1cc(OC)cc(C(=O)NCC(=O)NC(C)c2ccccc2)c1 (stereo not drawn)	–	inactive: 3.85%
CCCCc1nc(N2CCN(C(=O)c3ccco3)CC2)c(C#N)c2c1CCCC2	inconclusive: 7.31 µM [activator, partial curve]	–
O=C(c1coc(=O)c(Br)c1)N1CCOCC1	inconclusive: 20.6 µM [activator, partial curve, poor fit]	–
C/C(=N\N=C(N)N)c1ccc(Cl)cc1	inconclusive: 29.1 µM [activator, single point]	–
O=C(COC(=O)c1ccc(Cl)cc1O)NCCN1C(=O)CSC1=O	–	inactive: 6.76%
N#C/C(=C(/O)c1cc2ccccc2o1)c1nc2ccccc2s1	inconclusive: 13 µM [activator, single point]	–
CCOc1ccc2nc(NC(=O)CC3Oc4ccccc4NC3=O)sc2c1 (stereo not drawn)	inconclusive: 16.4 µM [activator, single point]	–
CN(C(=O)c1ccc(NC(=O)Cc2ccc(NC(=O)C3CCCN(C(=O)CCc4ccccc4)C3)cc2)cc1)C1CC1 (stereo not drawn)	–	inactive: 8%
CCCn1c(=O)c(C(=O)NNS(=O)(=O)c2ccc(NC(=O)OC)cc2)c(O)c2ccccc21	inconclusive: 16.4 µM [activator, single point]	–
O=C(CSc1nc(Nc2ccccc2)nc(N2CCOCC2)n1)N1CCCC1	inconclusive: 20.6 µM [activator, single point]	–
COc1ccccc1C1CC(c2ccc(Br)cc2)=NN1C(=O)c1cccnc1 (stereo not drawn)	inconclusive: 29.1 µM [activator, single point]	–
Clc1ccc2nncn2n1	inconclusive: 11.6 µM [activator, partial curve, poor fit]	–
O=c1[nH]c(C2CCN(S(=O)(=O)c3ccccc3)CC2)nc2c1nnn2Cc1ccc2c(c1)OCCO2	inconclusive: 0.146 µM [activator, full curve, poor fit]	–
CC(C)c1ccc(S(=O)(=O)Nc2ccc(-n3cnnn3)cc2)cc1	inconclusive: 32.6 µM [activator, partial curve, poor fit]	–

SMILES	Potency	re-replication activation
COC(=O)C1C(=O)C=C(N2CCOCC2)CC1(C)C (stereo not drawn)	–	inactive: 2.9%
C=C(c1cccc2ccccc12)P(=O)(O)O	inconclusive: 29.1 µM [activator, single point]	–
COc1cc(S(=O)(=O)N2CCN(Cc3ccccc3)CC2)ccc1Br	inconclusive: 29.1 µM [activator, single point]	–
O=C(COc1ccccc1Cl)Nc1cc(Cl)ccc1O	–	inactive: 4.62%
CCC1(c2ccc(F)cc2)NC(=O)N(CC(=O)N2c3ccccc3NC(=O)C2(C)C)C1=O (stereo not drawn)	inconclusive: 29.1 µM [activator, single point]	–
CC(C)(C)CC(C)(C)NCC(O)COCCOc1ccc(Br)cc1 (stereo not drawn)	inconclusive: 23.1 µM [activator, single point]	–
COc1ccc(C2N=C(c3ccccc3)C(C)(C)N2O)cc1 (stereo not drawn)	inconclusive: 29.1 µM [activator, single point]	–
Cc1ccc(-n2c(O)c(C=Nc3ccc4c(c3)OCO4)c3ccccc3c2=O)cc1C	–	inactive: -0.71%
O=C(Cc1cccc2ccccc12)N/N=C/C=C/c1cccc([N+](=O)[O-])c1	–	inactive: -4.62%
CC(C)OCCCNC(=O)CN1C(=O)/C(=C/c2ccccc2F)Oc2ccccc21	inconclusive: 29.1 µM [activator, single point]	–
COc1ccc(N2C(=O)C3NN=C(C(=O)OCc4ccccc4)C3C2=O)cc1 (stereo not drawn)	–	inactive: 3.73%
COc1cc([N+](=O)[O-])ccc1NC(=O)C[n+]1cccc(C(C)=O)c1	inconclusive: 29.1 µM [activator, single point]	–
CCCn1cnc2c(Sc3c([N+](=O)[O-])ncn3C)nc(N)nc21	–	inactive: 5.27%
COc1ccccc1N1CCN(C(=O)CSc2nc3ccccc3nc2N2CCC(C)CC2)CC1	inconclusive: 16.4 µM [activator, single point]	–
O=C(COc1ccccc1)NCCSCc1ccccc1Cl	–	inactive: -4.4%
O=C(NCCc1ccccc1)C(=O)N/N=C/c1ccc2c(c1)OCO2	inconclusive: 20.6 µM [activator, single point]	–
CC(C)CN(C(=O)CSc1nc(-c2ccccc2)cn1N)c1c(N)n(Cc2ccccc2)c(=O)[nH]c1=O	–	inactive: -27%
COc1ccccc1NS(=O)(=O)c1ccc(C)c(C(=O)N2CCN(c3ccc(O)cc3)CC2)c1	inconclusive: 16.4 µM [activator, partial curve, poor fit]	–
CCN(CC)CCNc1c2c(c(C#N)c3nc4ccccc4n13)CCCC2	inconclusive: 29.1 µM [activator, single point]	–
CCCOC1CCCN(C(=O)CCc2nnc(Cc3cccc(C)c3)o2)C1 (stereo not drawn)	–	inactive: -2.88%
O=C1CC(c2ccccc2)=C(c2ccccc2)C1c1ccccc1 (stereo not drawn)	inconclusive: 32.6 µM [activator, partial curve, poor fit]	–
CN1CCSc2ccc(C(=O)Nc3cccc(F)c3)cc21	inconclusive: 20.6 µM [activator, single point]	–
